Source: PubChem BioAssay AID504793 (Drosophila RNAi Screening Center, 2011)
In all, the deposit lists about 23,000 reagents; shown is an unselected part of those that have a named target and a result. Over the whole deposit, 62 (0.27%) were called active. 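Calls come from follow-up tests whose scores are not deposited, so confirmed genes may have low counts here; counts are not normalised per plate.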 Raw values are not corrected between plates.

- Aim: 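Genes required for cells to halt at G2/M after double-strand DNA breaks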 (primary screen)
- Cells: Drosophila S2R+ cells
- Knock-down reagent: long dsRNA against Drosophila genes, about 0.25 µg dsRNA per well
- Timing: 4 days of dsRNA, then 4 hours of drug before read-out
- Conditions: doxorubicin 0.5 µM for 4 hours to cause double-strand breaks, in cells also given a low, harmless dose of dsRNA against nbs to sensitise the assay
- Detection: 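Mitotic index as the number of phospho-histone H3-positive cells in each well following doxorubicin, given as raw counts without normalisation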
- Direction: mitotic cells: higher = more cells in mitosis, weaker G2 arrest
- Active means: 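Genes are called active only when high mitotic counts were reproduced with independent dsRNAs and mitosis was checked for delay without damage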
- Meaning of the calls: active = confirmed in follow-up tests; inactive = not confirmed

Nup214 [DRSC04421]: mitotic cells, replicate 1 = 2; call = inactive
abo [DRSC02926]: mitotic cells, replicate 1 = 6; call = inactive
Act5C [DRSC17723]: mitotic cells, replicate 1 = 19; call = inactive
Act5C [DRSC25024]: mitotic cells, replicate 1 = 6; call = inactive
Sfxn1-3 [DRSC12183]: mitotic cells, replicate 1 = 2; call = inactive
Obp58c [DRSC04166]: mitotic cells, replicate 1 = 2; call = inactive
CLIP-190 [DRSC03283]: mitotic cells, replicate 1 = 3; call = inactive
CLIP-190 [DRSC30075]: mitotic cells, replicate 1 = 1; call = inactive
psidin [DRSC15660]: mitotic cells, replicate 1 = 8; call = inactive
CG31102 [DRSC14260]: mitotic cells, replicate 1 = 6; call = inactive
CG31102 [DRSC26350]: mitotic cells, replicate 1 = 7; call = inactive
CG18281 [DRSC11742]: mitotic cells, replicate 1 = 2; call = inactive
CG8353 [DRSC03084]: mitotic cells, replicate 1 = 8; call = inactive
CG8353 [DRSC27248]: mitotic cells, replicate 1 = 5; call = inactive

2 consecutive records from above, for reference:
CG8353 [DRSC03084]: mitotic cells, replicate 1 = 8; call = inactive
CG8353 [DRSC27248]: mitotic cells, replicate 1 = 5; call = inactive
